Experimental data published in the supplement of paper PMC10849652.
This is one part of the list.

Protein sequences, listed by entry. Tags and fused reporters are not part of them. Lines headed by an entry give the natural chain unless they say otherwise; changes in a name come on top.
UniProt Q2NKX9: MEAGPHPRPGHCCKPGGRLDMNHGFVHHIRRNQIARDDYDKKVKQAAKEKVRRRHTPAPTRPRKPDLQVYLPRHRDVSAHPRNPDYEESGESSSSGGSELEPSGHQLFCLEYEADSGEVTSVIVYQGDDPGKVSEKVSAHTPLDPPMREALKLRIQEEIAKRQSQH
UniProt P40121: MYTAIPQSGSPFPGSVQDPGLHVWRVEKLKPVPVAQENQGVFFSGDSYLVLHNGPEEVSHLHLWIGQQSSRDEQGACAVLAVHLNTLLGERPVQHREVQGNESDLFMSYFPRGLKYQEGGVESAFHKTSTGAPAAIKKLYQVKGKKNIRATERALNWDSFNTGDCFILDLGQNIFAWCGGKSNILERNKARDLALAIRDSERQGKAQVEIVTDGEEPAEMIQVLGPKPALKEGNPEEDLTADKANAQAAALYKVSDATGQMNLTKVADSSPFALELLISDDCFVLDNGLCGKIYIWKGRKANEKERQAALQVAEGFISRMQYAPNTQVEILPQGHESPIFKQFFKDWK
UniProt O43852: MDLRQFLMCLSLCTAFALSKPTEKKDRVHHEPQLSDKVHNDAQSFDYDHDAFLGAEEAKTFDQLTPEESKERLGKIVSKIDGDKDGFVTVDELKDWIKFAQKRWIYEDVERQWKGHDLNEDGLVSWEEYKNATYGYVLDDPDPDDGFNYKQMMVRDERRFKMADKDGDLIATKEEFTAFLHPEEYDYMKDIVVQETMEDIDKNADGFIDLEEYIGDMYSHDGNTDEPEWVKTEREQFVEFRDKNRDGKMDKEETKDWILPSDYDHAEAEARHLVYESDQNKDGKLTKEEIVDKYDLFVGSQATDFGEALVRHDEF
UniProt Q8IXQ3: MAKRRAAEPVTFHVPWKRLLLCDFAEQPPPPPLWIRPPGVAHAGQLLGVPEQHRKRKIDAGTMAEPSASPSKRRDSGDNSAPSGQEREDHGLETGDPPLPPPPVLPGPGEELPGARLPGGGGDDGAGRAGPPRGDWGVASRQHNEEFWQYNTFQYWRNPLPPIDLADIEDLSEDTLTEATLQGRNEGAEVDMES
UniProt O95873: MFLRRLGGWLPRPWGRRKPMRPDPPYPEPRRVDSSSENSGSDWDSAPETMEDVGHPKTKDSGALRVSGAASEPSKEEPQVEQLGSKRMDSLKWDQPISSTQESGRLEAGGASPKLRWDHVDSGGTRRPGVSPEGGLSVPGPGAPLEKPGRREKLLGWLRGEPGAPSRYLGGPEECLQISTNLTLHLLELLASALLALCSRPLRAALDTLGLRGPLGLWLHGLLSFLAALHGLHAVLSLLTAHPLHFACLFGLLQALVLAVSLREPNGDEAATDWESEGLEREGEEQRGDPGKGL
UniProt Q6ZSJ8: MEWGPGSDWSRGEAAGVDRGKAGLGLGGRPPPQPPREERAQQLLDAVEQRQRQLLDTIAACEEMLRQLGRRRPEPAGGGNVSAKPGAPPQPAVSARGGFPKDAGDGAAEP
UniProt O43683: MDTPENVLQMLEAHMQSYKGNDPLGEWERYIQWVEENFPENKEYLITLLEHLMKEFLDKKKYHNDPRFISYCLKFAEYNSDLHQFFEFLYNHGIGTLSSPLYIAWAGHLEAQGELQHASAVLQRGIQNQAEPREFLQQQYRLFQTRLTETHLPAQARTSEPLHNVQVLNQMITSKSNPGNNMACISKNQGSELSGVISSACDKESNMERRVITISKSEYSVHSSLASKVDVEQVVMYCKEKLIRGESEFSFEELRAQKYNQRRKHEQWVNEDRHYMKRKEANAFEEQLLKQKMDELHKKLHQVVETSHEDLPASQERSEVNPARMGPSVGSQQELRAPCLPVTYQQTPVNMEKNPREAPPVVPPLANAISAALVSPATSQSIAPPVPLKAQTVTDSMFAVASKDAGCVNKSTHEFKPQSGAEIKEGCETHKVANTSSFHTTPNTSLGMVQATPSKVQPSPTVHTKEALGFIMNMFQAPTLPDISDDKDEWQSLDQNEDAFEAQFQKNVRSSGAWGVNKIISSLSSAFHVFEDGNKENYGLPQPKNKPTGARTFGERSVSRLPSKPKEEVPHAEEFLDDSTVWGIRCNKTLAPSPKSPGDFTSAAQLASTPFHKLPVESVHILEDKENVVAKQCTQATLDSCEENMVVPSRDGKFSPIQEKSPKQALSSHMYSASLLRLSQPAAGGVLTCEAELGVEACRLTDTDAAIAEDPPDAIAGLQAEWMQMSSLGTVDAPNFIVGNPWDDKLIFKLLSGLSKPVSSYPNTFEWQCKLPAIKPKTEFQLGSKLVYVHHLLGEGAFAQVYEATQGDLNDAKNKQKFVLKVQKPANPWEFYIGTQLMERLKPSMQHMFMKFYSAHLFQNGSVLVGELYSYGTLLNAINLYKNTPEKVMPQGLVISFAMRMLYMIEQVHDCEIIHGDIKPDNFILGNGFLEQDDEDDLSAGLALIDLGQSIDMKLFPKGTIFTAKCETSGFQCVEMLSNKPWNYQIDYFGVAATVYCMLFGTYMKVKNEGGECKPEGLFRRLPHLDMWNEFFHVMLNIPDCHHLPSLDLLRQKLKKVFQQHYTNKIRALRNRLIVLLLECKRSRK
UniProt Q8WVQ1: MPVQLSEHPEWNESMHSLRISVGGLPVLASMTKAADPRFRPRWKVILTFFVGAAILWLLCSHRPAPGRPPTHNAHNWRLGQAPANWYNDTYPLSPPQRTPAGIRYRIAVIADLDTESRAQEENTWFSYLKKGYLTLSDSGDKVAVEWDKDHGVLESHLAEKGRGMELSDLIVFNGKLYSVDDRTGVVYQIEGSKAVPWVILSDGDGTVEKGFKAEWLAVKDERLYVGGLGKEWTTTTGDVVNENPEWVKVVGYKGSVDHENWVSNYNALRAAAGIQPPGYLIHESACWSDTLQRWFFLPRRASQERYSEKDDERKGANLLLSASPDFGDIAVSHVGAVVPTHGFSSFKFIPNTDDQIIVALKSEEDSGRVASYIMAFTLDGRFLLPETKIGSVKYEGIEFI
UniProt Q8WUQ7: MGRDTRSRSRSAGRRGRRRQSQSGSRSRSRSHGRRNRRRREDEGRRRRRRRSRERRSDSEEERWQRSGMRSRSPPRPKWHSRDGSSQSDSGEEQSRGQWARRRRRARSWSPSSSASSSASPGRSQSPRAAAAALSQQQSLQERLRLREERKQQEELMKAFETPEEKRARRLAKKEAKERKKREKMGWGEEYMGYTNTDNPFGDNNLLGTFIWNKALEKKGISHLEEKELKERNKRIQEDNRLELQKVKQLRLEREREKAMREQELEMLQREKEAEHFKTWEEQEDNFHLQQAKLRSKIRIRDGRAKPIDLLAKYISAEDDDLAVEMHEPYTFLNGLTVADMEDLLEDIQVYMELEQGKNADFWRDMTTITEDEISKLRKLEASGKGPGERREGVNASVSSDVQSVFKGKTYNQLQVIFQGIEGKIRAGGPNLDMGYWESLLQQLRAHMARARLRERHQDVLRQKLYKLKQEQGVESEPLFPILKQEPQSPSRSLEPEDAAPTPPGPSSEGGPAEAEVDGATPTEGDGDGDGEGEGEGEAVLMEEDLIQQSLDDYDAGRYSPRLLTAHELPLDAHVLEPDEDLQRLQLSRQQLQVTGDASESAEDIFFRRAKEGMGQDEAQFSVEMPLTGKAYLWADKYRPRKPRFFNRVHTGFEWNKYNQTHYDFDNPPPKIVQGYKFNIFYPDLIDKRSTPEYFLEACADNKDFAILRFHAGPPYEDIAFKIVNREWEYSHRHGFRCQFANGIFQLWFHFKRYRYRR
UniProt Q9NZ63: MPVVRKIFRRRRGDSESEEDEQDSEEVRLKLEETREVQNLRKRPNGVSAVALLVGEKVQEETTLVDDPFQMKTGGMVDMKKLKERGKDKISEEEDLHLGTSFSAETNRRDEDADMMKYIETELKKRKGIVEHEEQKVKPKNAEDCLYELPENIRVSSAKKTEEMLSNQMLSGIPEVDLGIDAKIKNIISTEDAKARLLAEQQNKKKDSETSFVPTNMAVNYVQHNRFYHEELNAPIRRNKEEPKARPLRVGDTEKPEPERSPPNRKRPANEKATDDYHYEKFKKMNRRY
UniProt Q6UWU4: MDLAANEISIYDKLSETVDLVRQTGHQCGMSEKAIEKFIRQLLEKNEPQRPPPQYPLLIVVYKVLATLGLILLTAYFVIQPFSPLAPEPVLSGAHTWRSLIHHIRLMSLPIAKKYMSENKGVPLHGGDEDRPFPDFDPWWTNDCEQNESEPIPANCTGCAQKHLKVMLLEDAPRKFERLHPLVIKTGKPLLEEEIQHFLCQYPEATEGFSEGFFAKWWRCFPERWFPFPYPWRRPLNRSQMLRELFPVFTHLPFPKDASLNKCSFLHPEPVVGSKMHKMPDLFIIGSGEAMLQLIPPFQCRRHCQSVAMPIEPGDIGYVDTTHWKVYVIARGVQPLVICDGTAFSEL
UniProt Q96EU7: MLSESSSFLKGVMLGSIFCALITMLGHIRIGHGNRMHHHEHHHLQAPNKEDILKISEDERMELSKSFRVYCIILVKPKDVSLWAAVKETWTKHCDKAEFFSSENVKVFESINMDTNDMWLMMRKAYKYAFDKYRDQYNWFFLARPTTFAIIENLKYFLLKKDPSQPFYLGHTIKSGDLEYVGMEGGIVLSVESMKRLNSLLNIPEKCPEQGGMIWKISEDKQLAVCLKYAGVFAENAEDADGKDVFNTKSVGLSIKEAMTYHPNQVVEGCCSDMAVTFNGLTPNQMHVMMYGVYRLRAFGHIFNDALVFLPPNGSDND
UniProt P47756, whole entry, looked up: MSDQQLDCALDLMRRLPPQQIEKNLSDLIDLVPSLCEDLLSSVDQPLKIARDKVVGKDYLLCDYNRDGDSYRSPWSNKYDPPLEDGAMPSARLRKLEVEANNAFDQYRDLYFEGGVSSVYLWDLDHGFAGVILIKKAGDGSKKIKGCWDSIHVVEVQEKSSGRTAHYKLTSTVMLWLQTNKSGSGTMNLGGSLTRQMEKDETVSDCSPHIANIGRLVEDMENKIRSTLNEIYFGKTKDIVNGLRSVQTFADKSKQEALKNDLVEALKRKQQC
UniProt P04632: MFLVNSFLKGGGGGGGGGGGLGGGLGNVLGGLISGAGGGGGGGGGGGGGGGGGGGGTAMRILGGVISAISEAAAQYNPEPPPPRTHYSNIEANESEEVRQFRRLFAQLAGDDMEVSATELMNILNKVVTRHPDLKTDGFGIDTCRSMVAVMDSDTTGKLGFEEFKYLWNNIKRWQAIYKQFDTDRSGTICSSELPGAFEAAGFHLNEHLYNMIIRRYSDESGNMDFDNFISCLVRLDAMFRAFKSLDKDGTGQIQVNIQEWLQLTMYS
UniProt P17655: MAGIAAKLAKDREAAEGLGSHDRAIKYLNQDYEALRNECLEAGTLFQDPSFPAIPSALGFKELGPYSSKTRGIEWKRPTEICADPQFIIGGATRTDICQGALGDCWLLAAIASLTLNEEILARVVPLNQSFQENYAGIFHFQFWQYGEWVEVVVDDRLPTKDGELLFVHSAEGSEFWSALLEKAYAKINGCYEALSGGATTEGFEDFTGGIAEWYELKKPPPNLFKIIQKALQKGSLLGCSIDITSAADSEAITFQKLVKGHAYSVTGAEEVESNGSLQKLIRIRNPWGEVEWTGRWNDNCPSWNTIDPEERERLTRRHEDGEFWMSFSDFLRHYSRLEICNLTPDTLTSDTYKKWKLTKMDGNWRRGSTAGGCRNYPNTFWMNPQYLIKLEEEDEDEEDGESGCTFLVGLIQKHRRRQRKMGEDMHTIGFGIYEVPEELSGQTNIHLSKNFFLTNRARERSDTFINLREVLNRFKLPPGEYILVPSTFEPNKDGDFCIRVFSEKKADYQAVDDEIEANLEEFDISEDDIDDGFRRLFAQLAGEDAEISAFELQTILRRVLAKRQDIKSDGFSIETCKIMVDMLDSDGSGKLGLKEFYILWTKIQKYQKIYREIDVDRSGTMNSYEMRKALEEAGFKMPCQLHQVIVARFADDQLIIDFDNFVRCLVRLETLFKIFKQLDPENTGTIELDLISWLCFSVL
UniProt Q96K31: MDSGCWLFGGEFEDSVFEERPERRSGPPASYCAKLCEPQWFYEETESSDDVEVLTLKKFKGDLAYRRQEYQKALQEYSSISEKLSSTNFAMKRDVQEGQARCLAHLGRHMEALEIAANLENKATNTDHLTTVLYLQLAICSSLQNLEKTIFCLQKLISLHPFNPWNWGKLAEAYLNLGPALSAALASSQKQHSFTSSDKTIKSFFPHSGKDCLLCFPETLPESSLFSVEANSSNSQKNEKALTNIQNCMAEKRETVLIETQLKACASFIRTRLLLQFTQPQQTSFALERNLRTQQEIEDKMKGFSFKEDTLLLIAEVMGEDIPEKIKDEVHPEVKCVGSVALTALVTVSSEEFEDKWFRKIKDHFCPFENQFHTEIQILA
UniProt O43684, whole entry, looked up: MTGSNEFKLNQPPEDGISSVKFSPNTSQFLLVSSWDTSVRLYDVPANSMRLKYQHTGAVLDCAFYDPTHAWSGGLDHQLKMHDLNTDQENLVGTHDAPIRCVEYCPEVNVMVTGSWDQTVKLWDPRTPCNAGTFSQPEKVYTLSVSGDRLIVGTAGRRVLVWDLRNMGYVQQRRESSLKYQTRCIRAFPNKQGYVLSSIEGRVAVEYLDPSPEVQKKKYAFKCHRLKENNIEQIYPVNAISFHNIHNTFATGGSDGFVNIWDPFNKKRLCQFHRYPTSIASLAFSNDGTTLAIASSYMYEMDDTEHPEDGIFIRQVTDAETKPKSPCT

Assays:
Assay in all cases: log2 fold change, soluble protein after heating vs DMSO (PISA); higher = thermal stabilisation; K562 lysate, 10 uM; active = over 0.2 and 3.5 SD of the protein, either way, in both replicates (recomputed)
alvocidib = compound: CN1CC[C@H](c2c(O)cc(O)c3c(=O)cc(-c4ccccc4Cl)oc23)[C@H](O)C1 [alvocidib]
In short: (§1)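 The values are log-two fold changes in thermal stability compared with solvent controls and come from duplicates. They were obtained by TMTpro 16plex LC-MS/MS, with channel sums equalised, on the supernatant after 21,000xg for 90 min. That supernatant came from crude K562 extract at 1 mg/mL protein treated with 10 μM compound for 30 min, heated for 3 min across 48°C-58°C, pooled and brought to 0.5% NP-40 at 4°C.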

Tubastatin A = compound: CN1CCc2c(c3ccccc3n2Cc2ccc(C(=O)NO)cc2)C1 [Tubastatin A]
In short: as §1

[1] = compound: CNC(=O)C1=CC=CC=C1NC2=NC(=NC=C2Cl)NC3=C(C=C(C=C3)N4CCOCC4)OC
In short: as §1

defactinib = compound: CNC(=O)c1ccc(Nc2ncc(C(F)(F)F)c(NCc3nccnc3N(C)S(C)(=O)=O)n2)cc1 [defactinib]
In short: as §1

[2] = compound: CNc1nc(-c2ccc3c(N)n[nH]c3c2)cc(N2C[C@@H](C(=O)NC3CCCCC3)CC[C@H]2C)n1
In short: as §1

encorafenib = compound: COC(=O)N[C@@H](C)CNc1nccc(-c2cn(C(C)C)nc2-c2cc(Cl)cc(NS(C)(=O)=O)c2F)n1 [encorafenib]
In short: as §1

[3] = compound: COC(=O)[C@H](CCSC)NC(=O)C1=C(C=C(C=C1)NC[C@H](CS)N)C2=CC=CC=C2
In short: as §1

alisertib = compound: COc1cc(Nc2ncc3c(n2)-c2ccc(Cl)cc2C(c2c(F)cccc2OC)=NC3)ccc1C(=O)O [alisertib]
In short: as §1

[4] = compound: COc1cc2nc(-c3cc(F)ccc3O)nc(N[C@@H]3CNC[C@H]3C(C)(C)O)c2cc1OC
In short: as §1

gefitinib = compound: COc1cc2ncnc(Nc3ccc(F)c(Cl)c3)c2cc1OCCCN1CCOCC1 [gefitinib]
In short: as §1

Measured: log2 fold change

C19orf53 (UniProt Q9UNZ5)
inactive: alvocidib 0.032 | Tubastatin A -0.025 | [1] -0.056 | defactinib -0.01 | [2] 0.103 | encorafenib -0.017 | [3] -0.041 | alisertib 0.004 | [4] -0.068 | gefitinib 0.021

CAPZA2 (UniProt P47755)
inactive: alvocidib 0.036 | Tubastatin A 0.011 | [1] -0.009 | defactinib 0.006 | [2] 0.015 | encorafenib -0.03 | [3] -0.019 | alisertib -0.001 | [4] -0.011 | gefitinib 0.003

C2orf68 (UniProt Q2NKX9)
inactive: alvocidib 0.022 | Tubastatin A -0.044 | [1] 0.006 | defactinib 0.027 | [2] -0.02 | encorafenib 0.039 | [3] -0.059 | alisertib -0.082 | [4] 0.014 | gefitinib 0.022

CAPG (UniProt P40121)
inactive: alvocidib 0.012 | Tubastatin A 0.03 | [1] -0.045 | defactinib -0.02 | [2] -0.016 | encorafenib -0.07 | [3] -0.022 | alisertib -0.045 | [4] 0.005 | gefitinib -0.022

CALU isoform 4 (UniProt O43852)
inactive: alvocidib -0.05 | Tubastatin A 0.032 | [1] -0.026 | defactinib -0.052 | [2] -0.017 | encorafenib 0 | [3] -0.035 | alisertib 0.028 | [4] 0.011 | gefitinib 0.047

CAMLG (UniProt P49069)
inactive: alvocidib 0.051 | Tubastatin A -0.037 | [1] 0.044 | defactinib 0.067 | [2] -0.012 | encorafenib 0.09 | [3] -0.13 | alisertib 0.136 | [4] 0.006 | gefitinib 0.028

C5orf51 (UniProt A6NDU8)
inactive: alvocidib 0.075 | Tubastatin A -0.123 | [1] -0.01 | defactinib -0.045 | [2] -0.043 | encorafenib -0.006 | [3] 0.144 | alisertib 0.023 | [4] 0.038 | gefitinib 0.056

CALB2 (UniProt P22676)
inactive: alvocidib -0.028 | Tubastatin A -0.022 | [1] -0.028 | defactinib -0.062 | [2] 0.034 | encorafenib -0.014 | [3] -0.003 | alisertib -0.008 | [4] -0.01 | gefitinib 0.112

C9orf40 (UniProt Q8IXQ3)
inactive: alvocidib -0.007 | Tubastatin A -0.026 | [1] -0.013 | defactinib 0.021 | [2] 0.06 | encorafenib 0.034 | [3] -0.006 | alisertib 0.165 | [4] -0.017 | gefitinib 0.048

C6orf47 (UniProt O95873)
inactive: alvocidib -0.118 | Tubastatin A 0.064 | [1] 0.032 | defactinib 0.02 | [2] 0.042 | encorafenib 0.019 | [3] -0.006 | alisertib -0.028 | [4] -0.06 | gefitinib 0.014

C1orf50 (UniProt Q9BV19)
inactive: alvocidib 0.001 | Tubastatin A 0.039 | [1] -0.056 | defactinib 0.052 | [2] 0.013 | encorafenib 0.035 | [3] -0.034 | alisertib -0.126 | [4] -0.02 | gefitinib -0.189

CALM2 (UniProt P0DP24)
inactive: alvocidib -0.063 | Tubastatin A 0.018 | [1] -0.059 | defactinib -0.016 | [2] 0.124 | encorafenib 0.03 | [3] -0.085 | alisertib 0.011 | [4] 0.026 | gefitinib -0.13

C1orf122 (UniProt Q6ZSJ8)
inactive: alvocidib 0.023 | Tubastatin A 0.017 | [1] 0.034 | defactinib 0.089 | [2] 0.062 | encorafenib 0.115 | [3] -0.028 | alisertib -0.033 | [4] -0.02 | gefitinib 0.004

Quoted from the results shown (7 entries):
C5orf51 (UniProt A6NDU8)
inactive: alvocidib 0.075 | Tubastatin A -0.123 | [1] -0.01 | defactinib -0.045 | [2] -0.043 | encorafenib -0.006 | [3] 0.144 | alisertib 0.023 | [4] 0.038 | gefitinib 0.056

CALB2 (UniProt P22676)
inactive: alvocidib -0.028 | Tubastatin A -0.022 | [1] -0.028 | defactinib -0.062 | [2] 0.034 | encorafenib -0.014 | [3] -0.003 | alisertib -0.008 | [4] -0.01 | gefitinib 0.112

C9orf40 (UniProt Q8IXQ3)
inactive: alvocidib -0.007 | Tubastatin A -0.026 | [1] -0.013 | defactinib 0.021 | [2] 0.06 | encorafenib 0.034 | [3] -0.006 | alisertib 0.165 | [4] -0.017 | gefitinib 0.048

C6orf47 (UniProt O95873)
inactive: alvocidib -0.118 | Tubastatin A 0.064 | [1] 0.032 | defactinib 0.02 | [2] 0.042 | encorafenib 0.019 | [3] -0.006 | alisertib -0.028 | [4] -0.06 | gefitinib 0.014

C1orf50 (UniProt Q9BV19)
inactive: alvocidib 0.001 | Tubastatin A 0.039 | [1] -0.056 | defactinib 0.052 | [2] 0.013 | encorafenib 0.035 | [3] -0.034 | alisertib -0.126 | [4] -0.02 | gefitinib -0.189

CALM2 (UniProt P0DP24)
inactive: alvocidib -0.063 | Tubastatin A 0.018 | [1] -0.059 | defactinib -0.016 | [2] 0.124 | encorafenib 0.03 | [3] -0.085 | alisertib 0.011 | [4] 0.026 | gefitinib -0.13

C1orf122 (UniProt Q6ZSJ8)
inactive: alvocidib 0.023 | Tubastatin A 0.017 | [1] 0.034 | defactinib 0.089 | [2] 0.062 | encorafenib 0.115 | [3] -0.028 | alisertib -0.033 | [4] -0.02 | gefitinib 0.004

Additional entries.

BUB1 (UniProt O43683)
inactive: alvocidib -0.025 | Tubastatin A -0.102 | [1] 0.124 | defactinib -0.109 | [2] 0.04 | encorafenib 0.043 | [3] 0.062 | alisertib 0.07 | [4] -0.01 | gefitinib -0.023

CANT1 (UniProt Q8WVQ1)
inactive: alvocidib -0.003 | Tubastatin A 0.042 | [1] 0 | defactinib 0.016 | [2] -0.005 | encorafenib 0.024 | [3] -0.081 | alisertib 0.022 | [4] -0.005 | gefitinib 0.014

CACTIN isoform 2 (UniProt Q8WUQ7)
inactive: alvocidib 0.003 | Tubastatin A -0.088 | [1] 0.1 | defactinib -0.005 | [2] -0.024 | encorafenib -0.017 | [3] 0.012 | alisertib -0.078 | [4] 0.001 | gefitinib 0.054

C2orf69 (UniProt Q8N8R5)
inactive: alvocidib -0.016 | Tubastatin A -0.026 | [1] 0.012 | defactinib 0.002 | [2] -0.022 | encorafenib -0.077 | [3] 0.055 | alisertib -0.056 | [4] -0.036 | gefitinib 0

C9orf78 (UniProt Q9NZ63)
inactive: alvocidib 0.008 | Tubastatin A 0.036 | [1] 0.01 | defactinib -0.015 | [2] 0.023 | encorafenib -0.005 | [3] -0.043 | alisertib -0.024 | [4] -0.002 | gefitinib 0.015

C6orf89 isoform 2 (UniProt Q6UWU4)
inactive: alvocidib 0.023 | Tubastatin A 0.002 | [1] 0.053 | defactinib 0.008 | [2] 0.121 | encorafenib 0.029 | [3] -0.15 | alisertib -0.061 | [4] -0.047 | gefitinib 0.035

C1GALT1C1 (UniProt Q96EU7)
inactive: alvocidib -0.048 | Tubastatin A 0.078 | [1] 0 | defactinib -0.027 | [2] -0.017 | encorafenib -0.004 | [3] 0.006 | alisertib 0.043 | [4] -0.076 | gefitinib -0.023

CAPZB isoform 2 (UniProt P47756)
inactive: alvocidib -0.03 | Tubastatin A -0.005 | [1] -0.075 | defactinib -0.057 | [2] -0.027 | encorafenib -0.045 | [3] 0.011 | alisertib -0.061 | [4] 0.028 | gefitinib 0.119

CAPNS1 (UniProt P04632)
inactive: alvocidib 0.021 | Tubastatin A -0.022 | [1] 0.032 | defactinib 0.027 | [2] -0.005 | encorafenib 0.022 | [3] -0.129 | alisertib -0.012 | [4] -0.051 | gefitinib -0.062

CAAP1 (UniProt Q9H8G2)
inactive: alvocidib -0.025 | Tubastatin A -0.001 | [1] 0.038 | defactinib -0.019 | [2] 0.08 | encorafenib 0.075 | [3] -0.085 | alisertib -0.006 | [4] 0.101 | gefitinib -0.014

CAND2 (UniProt O75155)
inactive: alvocidib -0.015 | Tubastatin A 0.102 | [1] 0.003 | defactinib -0.011 | [2] 0.007 | encorafenib 0.016 | [3] -0.085 | alisertib -0.001 | [4] 0.01 | gefitinib 0.02

CAPN2 (UniProt P17655)
inactive: alvocidib -0.005 | Tubastatin A -0.024 | [1] -0.004 | defactinib 0.003 | [2] -0.008 | encorafenib 0.032 | [3] -0.015 | alisertib -0.007 | [4] -0.009 | gefitinib -0.014

C8orf76 (UniProt Q96K31)
inactive: alvocidib -0.021 | Tubastatin A 0.016 | [1] 0.029 | defactinib -0.002 | [2] 0.036 | encorafenib 0.079 | [3] 0.008 | alisertib -0.021 | [4] 0.003 | gefitinib -0.047

C1orf112 (UniProt Q9NSG2)
inactive: alvocidib -0.247 | Tubastatin A -0.181 | [1] 0.077 | defactinib 0.038 | [2] -0.082 | encorafenib 0.037 | [3] 0.096 | alisertib -0.032 | [4] -0.046 | gefitinib -0.004

CAPRIN1 (UniProt Q14444)
inactive: alvocidib 0.04 | Tubastatin A 0.054 | [1] -0.002 | defactinib -0.004 | [2] 0.061 | encorafenib -0.024 | [3] 0.001 | alisertib 0.013 | [4] -0.015 | gefitinib -0.012

BUB3 (UniProt O43684)
inactive: alvocidib -0.04 | Tubastatin A 0.016 | [1] 0 | defactinib 0.014 | [2] -0.029 | encorafenib 0.001 | [3] 0.018 | alisertib 0.005 | [4] -0.015 | gefitinib 0.012

CALU isoform 3 (UniProt O43852)
inactive: alvocidib -0.034 | Tubastatin A -0.003 | [1] -0.016 | defactinib -0.035 | [2] -0.006 | encorafenib -0.012 | [3] -0.018 | alisertib 0.03 | [4] 0.016 | gefitinib 0.011
